# Patent publication US8652087B2, “Method for use of microdialysis” (priority 2009, dated 2014)
# Test: Charcoal MTZ adsorption kinetics study (PMD and direct donor sampling)
# Type: physicochemical
# Settings: 37° C.
# Method: A charcoal suspension was prepared at least 24 hours before use by adding 0.6 g of activated charcoal (Sigma Chemical, St. Louis, Mo.) to 100 mL of 0.6% Dextran Solution (Birkmeier et al., 1995). A donor solution of MTZ in 0.005N NaOH was made with an initial concentration of C0=200 μg/mL and volume of 48 mL. A probe was immersed in the solution, and PMD was started before adding the charcoal using a dialysate that initially contained no MTZ. Samples were collected every 10 seconds, using a resting time of 8 seconds, a flow rate of 100 μL/min, and a sample volume of 5 μL. After collecting at least six samples, 2 mL of the charcoal suspension was quickly (in 1-2 seconds) mixed into 48 mL of stirred MTZ solution, giving a final volume of 50 mL. […] Samples were collected during 10 second intervals, and the start times for the sampling intervals were 0, 0.2, 0.4, 0.7, 1, 2, 5, 10 and 30 minutes. The flow rate was 100 μL/min, the rest time was 8 seconds, and the sample volume was 5 μL. The samples were immediately analyzed using HPLC. […] Direct sampling of the donor was also done at various times for comparison with the PMD data. The direct donor samples were immediately filtered to remove the activated charcoal and analyzed using HPLC.
structure (smiles),measurement,setting,value
"CC(=O)/N=c1/sc(S(N)(=O)=O)nn1C [MTZ, methazolamide]",free MTZ concentration after the first minute after addition of the activated charcoal,1 minute,2.8 µg/mL
same,free MTZ concentration at addition of the activated charcoal,start of first minute,5.4 µg/mL
